Structures are written as SMILES.

In US5436273A, “Psychoactive propargylamine derivatives used in the treatment of anxiety, psychotic states or aggression” (Lowchol Scientific, Inc., priority 1993, dated 1995) one finds TD50 data, which are given here for one molecule.

The nature of the data set: Rotarod neurotoxicity test in mice. The conditions noted are these: mouse, in vivo. (Falling from the rotarod earlier than controls is read as motor impairment.)

Broadly, the TD50 is the dose at which the toxic effect under study appears in half of the subjects. The low end stands for harm at a small dose, the high end for harm only at a large dose. As for `CN1C(=O)CN=C(c2ccccc2)c2cc(Cl)ccc21` [Diazepam], the TD50 at 0.5 h (ip) was determined as 6 mg/kg. In addition, for the setting “po”, the TD50 amounted to 13 mg/kg.
